Source: the supplement of paper PMC10849652
The other results are listed elsewhere or left out.

The chains behind the UniProt entries cited, without tags or fusion partners. Where a name states a change or a piece, a line headed by the entry shows the natural chain unless it says otherwise.
UniProt P33993, whole entry, looked up: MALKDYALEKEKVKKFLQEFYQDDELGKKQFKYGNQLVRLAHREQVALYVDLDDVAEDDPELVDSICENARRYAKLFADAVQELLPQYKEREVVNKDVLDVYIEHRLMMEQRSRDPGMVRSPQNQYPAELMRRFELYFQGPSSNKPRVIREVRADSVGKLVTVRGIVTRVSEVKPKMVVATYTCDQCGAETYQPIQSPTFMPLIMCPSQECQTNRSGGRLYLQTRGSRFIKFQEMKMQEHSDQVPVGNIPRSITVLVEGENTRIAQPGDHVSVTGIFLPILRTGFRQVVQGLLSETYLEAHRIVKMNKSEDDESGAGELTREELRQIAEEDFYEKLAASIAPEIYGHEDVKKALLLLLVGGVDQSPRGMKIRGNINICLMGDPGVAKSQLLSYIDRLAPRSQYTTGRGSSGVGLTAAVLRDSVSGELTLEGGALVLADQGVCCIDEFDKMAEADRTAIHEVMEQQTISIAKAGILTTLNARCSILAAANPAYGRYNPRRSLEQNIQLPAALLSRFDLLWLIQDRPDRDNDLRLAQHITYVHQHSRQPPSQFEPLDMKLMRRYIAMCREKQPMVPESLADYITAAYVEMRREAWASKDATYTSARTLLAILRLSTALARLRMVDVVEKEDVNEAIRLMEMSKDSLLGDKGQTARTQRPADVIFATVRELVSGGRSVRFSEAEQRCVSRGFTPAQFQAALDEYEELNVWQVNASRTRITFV
UniProt P10620: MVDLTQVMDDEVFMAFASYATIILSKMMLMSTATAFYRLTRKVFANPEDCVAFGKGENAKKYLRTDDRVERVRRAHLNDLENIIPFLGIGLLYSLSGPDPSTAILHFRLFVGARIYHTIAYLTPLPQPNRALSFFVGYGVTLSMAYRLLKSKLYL
UniProt Q9ULK4: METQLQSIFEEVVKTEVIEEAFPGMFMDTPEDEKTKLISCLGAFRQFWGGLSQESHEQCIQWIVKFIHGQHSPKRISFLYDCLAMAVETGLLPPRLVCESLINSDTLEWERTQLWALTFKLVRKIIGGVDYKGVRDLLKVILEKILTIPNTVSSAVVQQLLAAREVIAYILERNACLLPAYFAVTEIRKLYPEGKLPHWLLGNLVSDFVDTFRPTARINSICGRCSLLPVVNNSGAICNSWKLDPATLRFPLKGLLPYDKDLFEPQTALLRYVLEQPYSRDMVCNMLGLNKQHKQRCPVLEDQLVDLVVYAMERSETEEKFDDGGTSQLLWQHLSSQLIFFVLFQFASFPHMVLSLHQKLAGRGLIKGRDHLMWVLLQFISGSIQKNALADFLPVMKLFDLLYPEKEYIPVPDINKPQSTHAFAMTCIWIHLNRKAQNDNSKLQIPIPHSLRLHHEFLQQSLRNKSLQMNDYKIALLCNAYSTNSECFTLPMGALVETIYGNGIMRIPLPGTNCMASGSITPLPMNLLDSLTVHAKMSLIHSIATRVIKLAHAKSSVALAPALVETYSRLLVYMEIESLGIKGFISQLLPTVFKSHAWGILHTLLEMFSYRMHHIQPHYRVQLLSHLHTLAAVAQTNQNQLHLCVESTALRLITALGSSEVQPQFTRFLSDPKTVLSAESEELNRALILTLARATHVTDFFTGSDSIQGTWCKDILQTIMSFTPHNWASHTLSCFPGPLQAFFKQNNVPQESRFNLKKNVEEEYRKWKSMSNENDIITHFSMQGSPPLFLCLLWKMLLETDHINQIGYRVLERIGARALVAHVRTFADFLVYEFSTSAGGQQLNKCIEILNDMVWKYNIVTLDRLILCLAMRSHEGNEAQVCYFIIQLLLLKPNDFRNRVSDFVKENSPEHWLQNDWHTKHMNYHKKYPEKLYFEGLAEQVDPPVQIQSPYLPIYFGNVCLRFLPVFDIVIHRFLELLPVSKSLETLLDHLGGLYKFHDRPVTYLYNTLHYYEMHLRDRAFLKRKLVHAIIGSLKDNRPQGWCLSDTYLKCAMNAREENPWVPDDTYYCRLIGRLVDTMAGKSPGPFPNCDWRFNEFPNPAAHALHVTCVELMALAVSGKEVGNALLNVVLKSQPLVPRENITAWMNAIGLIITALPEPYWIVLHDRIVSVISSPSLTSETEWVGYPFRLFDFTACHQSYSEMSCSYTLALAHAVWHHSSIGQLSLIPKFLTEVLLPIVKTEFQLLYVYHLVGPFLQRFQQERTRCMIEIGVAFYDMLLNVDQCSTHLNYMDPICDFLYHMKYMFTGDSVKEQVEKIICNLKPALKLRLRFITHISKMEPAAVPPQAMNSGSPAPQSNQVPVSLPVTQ
UniProt P56270: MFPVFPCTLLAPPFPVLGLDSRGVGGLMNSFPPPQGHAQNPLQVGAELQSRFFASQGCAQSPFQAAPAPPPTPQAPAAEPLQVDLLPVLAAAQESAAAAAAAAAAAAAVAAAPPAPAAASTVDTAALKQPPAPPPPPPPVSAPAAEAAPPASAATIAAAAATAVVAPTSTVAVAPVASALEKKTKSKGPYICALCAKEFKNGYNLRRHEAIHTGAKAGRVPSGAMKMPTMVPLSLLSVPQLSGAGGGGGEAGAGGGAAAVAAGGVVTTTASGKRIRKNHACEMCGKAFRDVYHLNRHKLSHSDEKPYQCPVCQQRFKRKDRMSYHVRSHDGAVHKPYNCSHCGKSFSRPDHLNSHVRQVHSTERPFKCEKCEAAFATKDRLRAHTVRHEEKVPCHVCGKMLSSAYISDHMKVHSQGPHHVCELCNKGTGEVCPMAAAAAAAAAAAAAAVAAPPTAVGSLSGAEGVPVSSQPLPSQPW
UniProt Q96AQ8: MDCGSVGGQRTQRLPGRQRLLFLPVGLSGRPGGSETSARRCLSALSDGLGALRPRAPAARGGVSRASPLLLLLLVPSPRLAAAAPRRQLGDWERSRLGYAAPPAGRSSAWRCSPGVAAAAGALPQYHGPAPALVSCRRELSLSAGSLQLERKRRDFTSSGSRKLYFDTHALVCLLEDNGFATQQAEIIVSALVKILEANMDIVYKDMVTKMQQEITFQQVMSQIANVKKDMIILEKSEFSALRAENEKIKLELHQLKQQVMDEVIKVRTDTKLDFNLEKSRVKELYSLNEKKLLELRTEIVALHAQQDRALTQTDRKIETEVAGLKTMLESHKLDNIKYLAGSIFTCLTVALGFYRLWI
UniProt Q9NRN9: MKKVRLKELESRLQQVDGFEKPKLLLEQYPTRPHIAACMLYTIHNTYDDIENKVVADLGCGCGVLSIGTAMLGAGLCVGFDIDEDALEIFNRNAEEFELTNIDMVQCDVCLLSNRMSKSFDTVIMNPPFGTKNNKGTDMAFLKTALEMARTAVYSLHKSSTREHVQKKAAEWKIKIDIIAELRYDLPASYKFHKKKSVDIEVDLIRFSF
UniProt Q9NPJ6: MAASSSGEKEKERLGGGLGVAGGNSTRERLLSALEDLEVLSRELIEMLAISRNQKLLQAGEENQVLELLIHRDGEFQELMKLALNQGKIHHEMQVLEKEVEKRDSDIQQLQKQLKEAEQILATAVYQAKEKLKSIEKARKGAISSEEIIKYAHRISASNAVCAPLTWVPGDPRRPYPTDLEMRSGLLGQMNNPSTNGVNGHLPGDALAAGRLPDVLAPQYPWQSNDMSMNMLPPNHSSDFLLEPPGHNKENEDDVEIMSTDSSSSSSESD
UniProt Q9BUT9: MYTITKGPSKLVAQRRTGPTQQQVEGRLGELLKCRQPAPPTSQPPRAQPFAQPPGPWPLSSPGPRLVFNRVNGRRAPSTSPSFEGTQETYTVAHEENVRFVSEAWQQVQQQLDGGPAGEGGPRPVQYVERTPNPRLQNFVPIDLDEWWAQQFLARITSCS
UniProt Q68D91: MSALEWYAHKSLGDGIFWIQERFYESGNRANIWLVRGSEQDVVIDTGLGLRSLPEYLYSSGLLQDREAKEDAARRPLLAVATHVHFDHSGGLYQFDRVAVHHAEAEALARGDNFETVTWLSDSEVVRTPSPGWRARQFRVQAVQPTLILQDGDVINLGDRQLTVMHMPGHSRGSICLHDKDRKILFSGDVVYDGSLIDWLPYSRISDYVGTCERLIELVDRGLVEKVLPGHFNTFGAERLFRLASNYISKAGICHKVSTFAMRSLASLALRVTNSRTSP
UniProt Q7L590: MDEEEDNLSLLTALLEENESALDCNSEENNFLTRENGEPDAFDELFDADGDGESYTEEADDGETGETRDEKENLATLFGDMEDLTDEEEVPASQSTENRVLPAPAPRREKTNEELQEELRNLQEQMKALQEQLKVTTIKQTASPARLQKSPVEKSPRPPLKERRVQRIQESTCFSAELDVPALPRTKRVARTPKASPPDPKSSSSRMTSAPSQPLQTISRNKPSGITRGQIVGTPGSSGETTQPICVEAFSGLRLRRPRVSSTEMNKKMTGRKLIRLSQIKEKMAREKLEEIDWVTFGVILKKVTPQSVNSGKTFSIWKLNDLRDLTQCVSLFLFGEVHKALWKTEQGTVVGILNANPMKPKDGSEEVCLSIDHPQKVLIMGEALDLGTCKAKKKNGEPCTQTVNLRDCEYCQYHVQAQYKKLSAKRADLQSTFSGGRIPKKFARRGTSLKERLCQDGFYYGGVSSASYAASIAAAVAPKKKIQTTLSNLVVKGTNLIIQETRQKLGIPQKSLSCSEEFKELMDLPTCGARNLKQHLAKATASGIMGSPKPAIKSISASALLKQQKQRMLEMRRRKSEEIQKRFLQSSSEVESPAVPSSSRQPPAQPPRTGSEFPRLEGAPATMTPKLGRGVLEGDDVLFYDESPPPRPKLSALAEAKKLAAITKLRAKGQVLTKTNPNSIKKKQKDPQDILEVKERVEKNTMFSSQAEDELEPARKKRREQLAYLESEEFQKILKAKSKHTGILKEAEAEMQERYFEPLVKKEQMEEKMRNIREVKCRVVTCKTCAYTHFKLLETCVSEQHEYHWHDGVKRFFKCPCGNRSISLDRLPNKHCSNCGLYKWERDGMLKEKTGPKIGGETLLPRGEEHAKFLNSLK
UniProt Q9GZU1, whole entry, looked up: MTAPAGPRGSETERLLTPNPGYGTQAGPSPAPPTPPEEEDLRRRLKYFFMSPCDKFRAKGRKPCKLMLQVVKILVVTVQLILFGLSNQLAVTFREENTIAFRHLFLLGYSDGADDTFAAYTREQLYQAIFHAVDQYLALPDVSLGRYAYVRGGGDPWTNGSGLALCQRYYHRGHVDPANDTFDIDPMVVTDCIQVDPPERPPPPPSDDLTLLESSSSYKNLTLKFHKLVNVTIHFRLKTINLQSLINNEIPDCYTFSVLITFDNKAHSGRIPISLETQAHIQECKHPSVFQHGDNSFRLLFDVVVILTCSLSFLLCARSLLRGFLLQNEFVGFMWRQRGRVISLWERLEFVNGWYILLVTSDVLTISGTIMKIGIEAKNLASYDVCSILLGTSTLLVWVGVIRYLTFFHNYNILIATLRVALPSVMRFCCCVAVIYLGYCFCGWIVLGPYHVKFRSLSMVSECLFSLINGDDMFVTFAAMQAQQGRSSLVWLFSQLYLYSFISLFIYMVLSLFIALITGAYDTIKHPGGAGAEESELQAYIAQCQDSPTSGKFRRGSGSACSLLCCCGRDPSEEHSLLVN
UniProt Q86YT6, whole entry, looked up: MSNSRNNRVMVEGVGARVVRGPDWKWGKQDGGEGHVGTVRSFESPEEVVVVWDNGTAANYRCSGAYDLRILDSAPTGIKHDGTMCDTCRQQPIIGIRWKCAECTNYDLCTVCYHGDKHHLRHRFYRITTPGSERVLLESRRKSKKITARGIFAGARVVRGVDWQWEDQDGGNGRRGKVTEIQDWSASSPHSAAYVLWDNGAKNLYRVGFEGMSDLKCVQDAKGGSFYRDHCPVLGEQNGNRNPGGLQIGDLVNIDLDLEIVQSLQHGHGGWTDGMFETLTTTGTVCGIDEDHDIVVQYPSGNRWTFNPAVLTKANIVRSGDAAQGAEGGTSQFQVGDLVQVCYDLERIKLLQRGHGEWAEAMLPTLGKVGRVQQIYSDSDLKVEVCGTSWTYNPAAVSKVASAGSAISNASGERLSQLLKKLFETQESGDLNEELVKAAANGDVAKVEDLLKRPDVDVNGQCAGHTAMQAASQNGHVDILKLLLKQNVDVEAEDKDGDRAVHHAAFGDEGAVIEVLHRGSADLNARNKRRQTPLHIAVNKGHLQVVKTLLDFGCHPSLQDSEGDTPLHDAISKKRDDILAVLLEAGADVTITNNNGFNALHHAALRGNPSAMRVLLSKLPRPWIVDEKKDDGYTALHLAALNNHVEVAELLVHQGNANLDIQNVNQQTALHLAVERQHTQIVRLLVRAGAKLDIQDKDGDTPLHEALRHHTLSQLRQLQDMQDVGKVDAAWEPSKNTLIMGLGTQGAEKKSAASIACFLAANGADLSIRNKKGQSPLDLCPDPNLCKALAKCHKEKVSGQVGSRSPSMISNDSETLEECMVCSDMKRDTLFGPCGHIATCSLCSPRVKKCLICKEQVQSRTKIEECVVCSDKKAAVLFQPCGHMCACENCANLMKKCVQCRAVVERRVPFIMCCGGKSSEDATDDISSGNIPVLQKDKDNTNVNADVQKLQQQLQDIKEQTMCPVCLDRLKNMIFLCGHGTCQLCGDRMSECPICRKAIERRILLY

What was measured:
Test in all cases: log2 fold change, soluble protein after heating vs DMSO (PISA); higher = thermal stabilisation; K562 cells, 10 uM, 30 min; active = over 0.2 and 3.5 SD of the protein, either way, in both replicates (recomputed)
[1] = compound: Cc1ccc(NC(=O)c2ccc(CN3CC[C@H](N(C)C)C3)c(C(F)(F)F)c2)cc1Nc1nccc(-c2cncnc2)n1 [bafetinib]
Summary of the method: (§1)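 K562 cells (2×10^6 cells/mL) were treated with 10 μM compound for 30 min, and aliquots were heated for 3 min over 48°C-58°C. Pooled aliquots were extracted in PBS with 0.5% NP-40 at 4°C, and the supernatant after 21,000xg for 90 min was measured by TMTpro 16plex LC-MS/MS with channel sums equalised. Reported thermal stability, relative to control samples and from duplicates, is a log2 fold change.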

[2] = compound: Cc1cccc(CC(=O)N2CCc3c2ccc(-c2cn(C)c4ncnc(N)c24)c3F)n1
Summary of the method: as §1

[3] = compound: Cc1cn(-c2cc(NC(=O)c3ccc(C)c(Nc4nccc(-c5cccnc5)n4)c3)cc(C(F)(F)F)c2)cn1 [nilotinib]
Summary of the method: as §1

[4] = compound: Cc1nc(Nc2n[nH]c3c2CN(C(=O)N[C@H](CN(C)C)c2ccccc2)C3(C)C)c2sccc2n1
Summary of the method: as §1

[5] = compound: Cc1nc(Nc2ncc(C(=O)Nc3c(C)cccc3Cl)s2)cc(N2CCN(CCO)CC2)n1 [dasatinib]
Summary of the method: as §1

[6] = compound: Cc1ncc(-c2ccnc(Nc3ccc(S(C)(=O)=O)cc3)n2)n1C(C)C
Summary of the method: as §1

[7] = compound: Cn1cc(-c2ccc3c(c2)CCN3C(=O)Cc2cccc(C(F)(F)F)c2)c2c(N)ncnc21
Summary of the method: as §1

[8] = compound: Cn1cc(-c2ccc3nnc(C(F)(F)c4ccc5ncccc5c4)n3n2)cn1
Summary of the method: as §1

[9] = compound: Cn1cncc1[C@@](N)(c1ccc(Cl)cc1)c1ccc2c(c1)c(-c1cccc(Cl)c1)cc(=O)n2C [tipifarnib]
Summary of the method: as §1

[10] = compound: FC(F)(F)c1ccc(/C=C/c2nc(COc3ccc(CCCCn4ccnn4)cc3)co2)cc1 [mubritinib]
Summary of the method: as §1

Measured: log2 fold change

MDP1 (UniProt Q86V88)
inactive: [1] 0.076 | [2] -0.031 | [3] 0.013 | [4] -0.022 | [5] 0.091 | [6] 0.028 | [7] -0.017 | [8] 0.128 | [9] -0.124 | [10] 0.054

ME2 (UniProt P23368)
inactive: [1] -0.012 | [2] -0.087 | [3] 0.138 | [4] 0.029 | [5] -0.052 | [6] -0.015 | [7] -0.076 | [8] 0.001 | [9] 0.107 | [10] -0.074

MBD2 (UniProt Q9UBB5)
inactive: [1] 0.017 | [2] -0.022 | [3] -0.007 | [4] 0.056 | [5] 0.022 | [6] -0.095 | [7] -0.008 | [8] -0.089 | [9] -0.009 | [10] -0.022

MGST3 (UniProt O14880)
inactive: [1] -0.085 | [2] -0.002 | [3] 0.01 | [4] 0.012 | [5] 0.069 | [6] -0.056 | [7] 0.004 | [8] -0.026 | [9] 0.019 | [10] -0.094

MGME1 (UniProt Q9BQP7)
inactive: [1] -0.048 | [2] 0.024 | [3] 0.023 | [4] -0.018 | [5] -0.01 | [6] -0.001 | [7] 0.042 | [8] -0.007 | [9] -0.031 | [10] 0.022

MCM7 (UniProt P33993)
inactive: [1] -0.035 | [2] 0.018 | [3] -0.017 | [4] -0.014 | [5] -0.066 | [6] -0.042 | [7] 0.021 | [8] 0.049 | [9] -0.021 | [10] 0.036

MED14 (UniProt O60244)
inactive: [1] -0.007 | [2] 0.071 | [3] 0.125 | [4] -0.134 | [5] -0.078 | [6] -0.134 | [7] 0.056 | [8] -0.098 | [9] 0.045 | [10] 0.036

MFGE8 (UniProt Q08431)
inactive: [1] 0.024 | [2] 0.002 | [3] 0.168 | [4] 0.008 | [5] 0.049 | [6] -0.039 | [7] -0.057 | [8] -0.029 | [9] 0.033 | [10] -0.096

METTL18 (UniProt O95568)
inactive: [1] -0.091 | [2] -0.049 | [3] -0.092 | [4] 0.028 | [5] 0.054 | [6] -0.023 | [7] -0.022 | [8] -0.087 | [9] 0.019 | [10] 0.036

MGST1 (UniProt P10620)
inactive: [1] -0.001 | [2] -0.053 | [3] -0.006 | [4] 0.078 | [5] 0.084 | [6] -0.039 | [7] -0.013 | [8] 0.014 | [9] 0.131 | [10] -0.005

METTL3 (UniProt Q86U44)
inactive: [1] -0.02 | [2] -0.014 | [3] -0.015 | [4] 0.002 | [5] -0.012 | [6] -0.018 | [7] 0.049 | [8] -0.021 | [9] 0.008 | [10] 0.072

MCEE (UniProt Q96PE7)
inactive: [1] -0.041 | [2] -0.047 | [3] 0.023 | [4] 0.064 | [5] -0.017 | [6] 0.019 | [7] 0.045 | [8] 0.01 | [9] -0.03 | [10] 0.045

MED23 (UniProt Q9ULK4)
inactive: [1] 0.046 | [2] 0.041 | [3] 0.083 | [4] -0.047 | [5] -0.006 | [6] -0.184 | [7] -0.021 | [8] -0.008 | [9] -0.09 | [10] 0.084

MAZ isoform 2 (UniProt P56270)
inactive: [1] 0.109 | [2] 0.016 | [3] 0.02 | [4] 0.072 | [5] 0.07 | [6] -0.017 | [7] -0.247 | [8] -0.115 | [9] 0.154 | [10] -0.107

MCM3 isoform 2 (UniProt P25205)
inactive: [1] -0.014 | [2] 0.029 | [3] -0.029 | [4] -0.011 | [5] -0.035 | [6] -0.036 | [7] 0.017 | [8] 0.03 | [9] -0.019 | [10] -0.002

MIA3 (UniProt Q5JRA6)
inactive: [1] -0.061 | [2] -0.012 | [3] 0.017 | [4] -0.054 | [5] -0.014 | [6] -0.019 | [7] -0.054 | [8] -0.002 | [9] 0.029 | [10] 0.015

MGAT5 (UniProt Q09328)
inactive: [1] -0.012 | [2] -0.036 | [3] 0.091 | [4] -0.067 | [5] 0.043 | [6] 0.02 | [7] 0.008 | [8] 0.185 | [9] -0.007 | [10] 0.025

MFSD10 (UniProt Q14728)
inactive: [1] 0.041 | [2] -0.071 | [3] 0.046 | [4] 0.06 | [5] 0.015 | [6] -0.002 | [7] 0.013 | [8] 0 | [9] 0.053 | [10] 0.104

Pulled one by one from the list above (two):
MGAT5 (UniProt Q09328)
inactive: [1] -0.012 | [2] -0.036 | [3] 0.091 | [4] -0.067 | [5] 0.043 | [6] 0.02 | [7] 0.008 | [8] 0.185 | [9] -0.007 | [10] 0.025

MIA3 (UniProt Q5JRA6)
inactive: [1] -0.061 | [2] -0.012 | [3] 0.017 | [4] -0.054 | [5] -0.014 | [6] -0.019 | [7] -0.054 | [8] -0.002 | [9] 0.029 | [10] 0.015

Following part:

MEA1 (UniProt Q16626)
inactive: [1] -0.019 | [2] -0.005 | [3] 0.016 | [4] -0.02 | [5] 0.08 | [6] -0.071 | [7] 0.02 | [8] 0.03 | [9] 0.055 | [10] 0.057

MECR (UniProt Q9BV79)
inactive: [1] 0.002 | [2] -0.025 | [3] 0.004 | [4] 0.007 | [5] -0.024 | [6] -0.03 | [7] 0.084 | [8] 0.022 | [9] 0.005 | [10] -0.033

MCUR1 (UniProt Q96AQ8)
inactive: [1] 0 | [2] 0 | [3] 0.015 | [4] 0.015 | [5] -0.037 | [6] -0.004 | [7] 0.031 | [8] -0.091 | [9] -0.028 | [10] 0.044

METTL5 (UniProt Q9NRN9)
inactive: [1] -0.034 | [2] -0.017 | [3] -0.008 | [4] 0.015 | [5] -0.012 | [6] -0.005 | [7] -0.026 | [8] 0.048 | [9] 0.006 | [10] 0.063

MED4 (UniProt Q9NPJ6)
inactive: [1] 0.023 | [2] -0.02 | [3] 0.017 | [4] 0.032 | [5] 0.024 | [6] -0.03 | [7] 0.053 | [8] -0.006 | [9] 0.097 | [10] 0.053

MCRIP2 (UniProt Q9BUT9)
inactive: [1] 0.107 | [2] 0.016 | [5] 0.08 | [7] 0.033 | [8] 0.028 | [9] 0.088

MBLAC2 (UniProt Q68D91)
inactive: [1] -0.037 | [2] -0.033 | [3] -0.017 | [4] 0.053 | [5] 0.016 | [6] -0.032 | [7] 0.027 | [8] -0.011 | [9] 0.034 | [10] 0.015

METTL25 (UniProt Q8N6Q8)
inactive: [1] -0.054 | [2] -0.075 | [3] -0.162 | [4] -0.007 | [5] 0.133 | [6] -0.09 | [7] 0.062 | [9] 0.143 | [10] 0.085

MCM10 (UniProt Q7L590)
inactive: [1] 0.182 | [2] -0.044 | [3] 0.046 | [4] -0.001 | [6] -0.008 | [9] -0.155 | [10] 0.09

MBLAC1 (UniProt A4D2B0)
inactive: [1] -0.017 | [2] 0.065 | [5] -0.129 | [7] 0.086 | [8] -0.125 | [9] 0.094 | [10] -0.045

MCOLN1 (UniProt Q9GZU1)
inactive: [1] -0.197 | [2] 0.04 | [3] 0.03 | [4] 0.145 | [5] 0.205 | [6] -0.067 | [8] 0.31 | [9] 0.018 | [10] 0.011

METTL9 (UniProt Q9H1A3)
inactive: [1] -0.137 | [2] 0.032 | [5] -0.239 | [7] -0.18 | [8] -0.083 | [9] 0.057 | [10] 0.172

MBOAT7 (UniProt Q96N66)
inactive: [1] -0.01 | [2] 0.036 | [3] -0.05 | [4] 0.019 | [5] 0.009 | [6] -0.018 | [7] 0.016 | [8] 0.058 | [9] -0.055 | [10] 0.014

MIB1 (UniProt Q86YT6)
inactive: [1] 0.026 | [2] 0.16 | [7] -0.034 | [8] -0.022 | [10] -0.005
